Measured values taken from US20040180862A1, “Compositions and methods for inhibiting bone resorption” (priority 2001, published 2004).

Legend:
skin [1] = experiment: Skin irritation after subcutaneous injection, histology (hematoxylin and eosin, affected area); set-up: species or system Rats; settings: rat, in vivo, sc, 0.5 mg/kg
skin [2] = settings: rat, in vivo, sc, 0.5 mg/kg, 5 days

volume of affected skin area (skin [2]): 280 mm^3
SMILES: NCCCC(O)(P(=O)(O)O)P(=O)(O)O [ALN, 4-amino-1-hydroxybutylidene-1,1-bisphosphonic acid monosodium trihydrate]
skin irritation (skin [1]): Skin irritation induced
